# PubChem BioAssay AID652243 | Drosophila RNAi Screening Center, 2013
# Assay: 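Fly regulators of androgen-dependent reporter output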 (primary screen)
# Cells: Drosophila S2R+ cells
# Knock-down reagent: long dsRNA against Drosophila genes
# Duration: 72 h (48 h, then 24 h hormone)
# Challenge: synthetic androgen R1881 at 10 nM for 24 h
# Read-out: 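Per-well raw luminescence of the androgen-driven firefly reporter and of the Renilla control, two replicates each, without normalisation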
# Direction: firefly reporter light: higher = more light from androgen-responsive reporter; Renilla control light: higher = more constitutive control signal (cell number, transfection)
# Active means: 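Across duplicate plates, a knock-down whose log firefly/Renilla ratio shifted a set fold down or up from the GFP/LacZ control mean was a hit; the downward cut appears as both 1.5 and 3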
# Meaning of the calls: active = hit: reporter lowered or raised; inactive = no hit
# In all, the deposit lists about 24,000 reagents; this is an unselected part of those with a known target gene and a result. Of all reagents, 246 (1%) are marked active. 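Plates not normalised; calls are printed but the firefly/Renilla ratio behind them is not deposited; fold cut for lowering reported inconsistently.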 Raw values are not corrected between plates. Names joined by + are all predicted targets of the reagent. Not given: the amount of reagent.
Gene,DRSC id,"firefly reporter light, replicate 1","firefly reporter light, replicate 2","Renilla control light, replicate 1","Renilla control light, replicate 2",outcome
Ugt307A1 (UDP-glycosyltransferase family 307 member A1),DRSC02138,1.81e5,1.36e5,1.47e6,1.31e6,inactive
spdi (split discs),DRSC18487,42149,50995,5.28e5,3.38e5,inactive
spdi (split discs),DRSC18488,1.53e5,2.05e5,2.64e6,2.40e6,inactive
CG5913,DRSC15916,1.34e5,1.56e5,3.06e6,3.13e6,inactive
CG1265,DRSC08288,1.35e5,2.14e5,2.43e6,3.33e6,inactive
Ada1-1 + Ada1-2,DRSC01220,1.31e5,1.40e5,5.88e5,4.42e5,inactive
Ada1-1 + Ada1-2,DRSC01222,75640,1.07e5,5.16e5,5.23e5,active
Ada1-1 + Ada1-2,DRSC28646,3.22e5,4.00e5,1.28e6,1.04e6,inactive
Duba (Deubiquitinating enzyme A),DRSC10582,5.11e5,8.26e5,7.30e5,1.06e6,inactive
CG33111,DRSC14208,1.40e5,1.71e5,2.03e6,1.88e6,inactive
CG33111,DRSC14444,1.97e5,1.91e5,3.01e6,1.97e6,inactive
ap (apterous),DRSC04917,7.61e5,5.45e5,2.44e6,2.42e6,inactive
RpL9 (Ribosomal protein L9),DRSC03418,1.61e5,1.95e5,1.20e6,9.22e5,inactive
CG13280,DRSC02253,1.45e5,1.19e5,1.36e6,1.60e6,inactive
SkpB (SKP1-related B),DRSC07683,5.04e5,2.93e5,1.74e6,1.86e6,inactive
SkpB (SKP1-related B),DRSC25160,1.95e5,1.97e5,5.82e5,3.94e5,inactive
CG42812,DRSC15368,1.43e5,1.60e5,2.29e6,2.40e6,inactive
Cyp6u1 (Cytochrome P450 6u1),DRSC05015,6.57e5,9.58e5,1.44e6,1.95e6,inactive
Cyp6u1 (Cytochrome P450 6u1),DRSC26528,2.65e5,2.23e5,6.81e5,6.35e5,inactive
mRpL33 (mitochondrial ribosomal protein L33),DRSC18319,3.79e5,5.19e5,3.81e6,4.01e6,inactive
CG6569,DRSC16067,2.76e5,2.71e5,3.20e6,3.28e6,inactive
CG34210,DRSC04579,3.62e5,3.39e5,2.58e6,1.83e6,inactive
CG34006 (retired record),DRSC37920,7.78e5,6.89e5,2.06e6,1.55e6,inactive
Cyp49a1 (Cytochrome P450 49a1),DRSC06737,1.77e5,1.84e5,1.70e6,1.28e6,inactive
Cyp49a1 (Cytochrome P450 49a1),DRSC07367,3.99e5,3.14e5,2.56e6,2.08e6,inactive
CG42565,DRSC04154,1.43e5,1.81e5,1.48e6,1.38e6,inactive
CG32240,DRSC08093,1.28e5,1.10e5,1.37e5,1.92e5,inactive
CG4815,DRSC15653,2.13e5,2.10e5,1.99e6,3.31e6,inactive
ksh (kish),DRSC19554,78654,46349,1.51e5,1.08e5,inactive
ksh (kish),DRSC28147,3.29e5,4.18e5,1.78e6,1.54e6,inactive
CG12111,DRSC17808,2.83e5,3.25e5,3.53e6,3.12e6,inactive
CG12111,DRSC26511,3.59e5,1.78e5,5.51e5,3.33e5,inactive
mnd (minidiscs),DRSC11370,1.48e5,1.93e5,1.65e6,1.34e6,inactive
BBS9 (Bardet-Biedl syndrome 9),DRSC04257,2.34e5,2.40e5,1.01e6,1.41e6,inactive
BBS9 (Bardet-Biedl syndrome 9),DRSC27789,2.46e5,2.01e5,4.32e5,6.51e5,inactive
CG5687,DRSC08568,9.37e5,7.51e5,2.07e6,1.62e6,inactive
CG17780 + CG17781,DRSC15266,92468,92601,2.11e6,2.39e6,inactive
CG17780 + CG17781,DRSC25581,6.97e5,5.60e5,7.73e5,7.66e5,inactive
CG17780 + CG17781,DRSC26816,2.94e5,3.00e5,3.93e5,3.50e5,inactive
l(2)05287 (lethal (2) 05287),DRSC02151,1.09e6,9.36e5,3.15e6,3.16e6,inactive
l(2)05287 (lethal (2) 05287),DRSC02152,1.12e5,1.28e5,1.44e6,1.30e6,inactive
l(2)05287 (lethal (2) 05287),DRSC26660,2.71e5,1.65e5,6.74e5,5.88e5,inactive

Hits (from the list above):
Gene,DRSC id,"firefly reporter light, replicate 1","firefly reporter light, replicate 2","Renilla control light, replicate 1","Renilla control light, replicate 2",outcome
Ada1-1 + Ada1-2,DRSC01222,75640,1.07e5,5.16e5,5.23e5,active
